The entries are a selection whose mix differs from that of the whole data set. Most entries show no effect beyond the scatter of the controls.

Amino acid sequences for entries named in this document (tags omitted). A change or cut given only in a name is not applied to a line headed by its entry.
UniProt P43674: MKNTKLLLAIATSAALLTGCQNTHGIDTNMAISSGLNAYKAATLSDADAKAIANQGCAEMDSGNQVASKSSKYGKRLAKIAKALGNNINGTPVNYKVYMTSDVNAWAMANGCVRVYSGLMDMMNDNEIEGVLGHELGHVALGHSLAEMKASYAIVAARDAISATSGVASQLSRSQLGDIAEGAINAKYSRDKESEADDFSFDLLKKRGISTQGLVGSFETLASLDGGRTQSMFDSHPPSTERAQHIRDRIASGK
UniProt P64474: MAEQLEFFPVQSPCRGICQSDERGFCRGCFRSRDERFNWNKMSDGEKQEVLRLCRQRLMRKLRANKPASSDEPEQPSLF
UniProt P39336: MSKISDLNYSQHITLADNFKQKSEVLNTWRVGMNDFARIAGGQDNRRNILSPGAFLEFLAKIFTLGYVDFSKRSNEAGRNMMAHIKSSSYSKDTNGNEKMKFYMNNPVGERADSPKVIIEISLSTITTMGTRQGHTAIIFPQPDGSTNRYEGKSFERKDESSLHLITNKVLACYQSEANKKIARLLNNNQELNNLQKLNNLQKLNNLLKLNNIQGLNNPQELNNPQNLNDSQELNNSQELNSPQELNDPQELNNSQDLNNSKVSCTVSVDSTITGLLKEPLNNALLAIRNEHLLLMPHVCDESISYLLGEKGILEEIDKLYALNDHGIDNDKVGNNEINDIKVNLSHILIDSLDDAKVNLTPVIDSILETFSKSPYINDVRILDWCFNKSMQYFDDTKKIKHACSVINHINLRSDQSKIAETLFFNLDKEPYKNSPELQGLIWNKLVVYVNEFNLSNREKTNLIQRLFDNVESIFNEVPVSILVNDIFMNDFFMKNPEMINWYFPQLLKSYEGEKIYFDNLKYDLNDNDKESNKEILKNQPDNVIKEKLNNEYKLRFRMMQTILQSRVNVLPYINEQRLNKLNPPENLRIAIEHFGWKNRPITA
UniProt P42907: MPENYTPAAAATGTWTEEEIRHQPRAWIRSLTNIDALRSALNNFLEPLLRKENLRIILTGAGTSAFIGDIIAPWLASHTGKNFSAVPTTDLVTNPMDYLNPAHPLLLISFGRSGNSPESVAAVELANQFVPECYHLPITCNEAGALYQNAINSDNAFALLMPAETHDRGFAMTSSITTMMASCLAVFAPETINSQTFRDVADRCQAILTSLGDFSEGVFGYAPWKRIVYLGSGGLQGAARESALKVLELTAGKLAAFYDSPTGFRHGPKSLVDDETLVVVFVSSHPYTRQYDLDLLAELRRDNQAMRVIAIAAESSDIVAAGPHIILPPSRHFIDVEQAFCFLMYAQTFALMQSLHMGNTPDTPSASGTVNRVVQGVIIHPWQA
UniProt P41039: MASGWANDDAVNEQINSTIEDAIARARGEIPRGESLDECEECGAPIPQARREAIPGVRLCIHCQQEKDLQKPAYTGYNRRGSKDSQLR
UniProt P39389: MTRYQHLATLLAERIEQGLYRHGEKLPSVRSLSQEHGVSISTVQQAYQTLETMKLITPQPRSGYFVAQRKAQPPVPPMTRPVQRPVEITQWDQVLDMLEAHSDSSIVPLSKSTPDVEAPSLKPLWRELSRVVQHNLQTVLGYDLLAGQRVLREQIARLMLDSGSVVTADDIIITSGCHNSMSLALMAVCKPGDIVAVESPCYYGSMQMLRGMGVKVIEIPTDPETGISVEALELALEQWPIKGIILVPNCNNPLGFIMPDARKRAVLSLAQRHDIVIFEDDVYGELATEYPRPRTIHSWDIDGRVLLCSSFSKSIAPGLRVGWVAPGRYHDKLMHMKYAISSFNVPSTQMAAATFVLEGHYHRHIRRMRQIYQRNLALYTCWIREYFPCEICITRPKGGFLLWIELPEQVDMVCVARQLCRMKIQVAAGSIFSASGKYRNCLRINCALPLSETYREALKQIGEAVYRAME
UniProt P39838: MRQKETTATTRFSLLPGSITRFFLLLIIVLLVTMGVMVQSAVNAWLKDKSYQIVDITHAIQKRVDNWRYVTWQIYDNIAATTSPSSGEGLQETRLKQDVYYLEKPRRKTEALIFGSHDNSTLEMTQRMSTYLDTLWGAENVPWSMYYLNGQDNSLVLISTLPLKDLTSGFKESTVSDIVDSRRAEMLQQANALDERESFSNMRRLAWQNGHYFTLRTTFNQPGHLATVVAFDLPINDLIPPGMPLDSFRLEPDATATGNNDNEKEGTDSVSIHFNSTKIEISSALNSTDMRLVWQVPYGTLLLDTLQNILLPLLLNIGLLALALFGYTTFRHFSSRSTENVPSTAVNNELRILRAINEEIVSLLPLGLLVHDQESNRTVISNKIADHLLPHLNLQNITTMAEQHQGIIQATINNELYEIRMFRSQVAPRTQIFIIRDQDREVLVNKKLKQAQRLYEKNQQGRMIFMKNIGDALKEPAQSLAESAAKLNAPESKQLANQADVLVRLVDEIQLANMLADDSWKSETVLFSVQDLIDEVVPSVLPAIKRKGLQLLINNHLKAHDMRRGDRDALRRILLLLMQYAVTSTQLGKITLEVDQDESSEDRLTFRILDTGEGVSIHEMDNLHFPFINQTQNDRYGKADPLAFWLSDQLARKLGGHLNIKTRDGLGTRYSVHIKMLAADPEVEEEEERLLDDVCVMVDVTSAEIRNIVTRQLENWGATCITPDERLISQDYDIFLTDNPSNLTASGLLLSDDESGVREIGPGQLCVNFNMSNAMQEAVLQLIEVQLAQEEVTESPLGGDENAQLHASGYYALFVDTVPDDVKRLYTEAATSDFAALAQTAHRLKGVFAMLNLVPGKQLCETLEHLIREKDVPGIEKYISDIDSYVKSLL
UniProt P52647: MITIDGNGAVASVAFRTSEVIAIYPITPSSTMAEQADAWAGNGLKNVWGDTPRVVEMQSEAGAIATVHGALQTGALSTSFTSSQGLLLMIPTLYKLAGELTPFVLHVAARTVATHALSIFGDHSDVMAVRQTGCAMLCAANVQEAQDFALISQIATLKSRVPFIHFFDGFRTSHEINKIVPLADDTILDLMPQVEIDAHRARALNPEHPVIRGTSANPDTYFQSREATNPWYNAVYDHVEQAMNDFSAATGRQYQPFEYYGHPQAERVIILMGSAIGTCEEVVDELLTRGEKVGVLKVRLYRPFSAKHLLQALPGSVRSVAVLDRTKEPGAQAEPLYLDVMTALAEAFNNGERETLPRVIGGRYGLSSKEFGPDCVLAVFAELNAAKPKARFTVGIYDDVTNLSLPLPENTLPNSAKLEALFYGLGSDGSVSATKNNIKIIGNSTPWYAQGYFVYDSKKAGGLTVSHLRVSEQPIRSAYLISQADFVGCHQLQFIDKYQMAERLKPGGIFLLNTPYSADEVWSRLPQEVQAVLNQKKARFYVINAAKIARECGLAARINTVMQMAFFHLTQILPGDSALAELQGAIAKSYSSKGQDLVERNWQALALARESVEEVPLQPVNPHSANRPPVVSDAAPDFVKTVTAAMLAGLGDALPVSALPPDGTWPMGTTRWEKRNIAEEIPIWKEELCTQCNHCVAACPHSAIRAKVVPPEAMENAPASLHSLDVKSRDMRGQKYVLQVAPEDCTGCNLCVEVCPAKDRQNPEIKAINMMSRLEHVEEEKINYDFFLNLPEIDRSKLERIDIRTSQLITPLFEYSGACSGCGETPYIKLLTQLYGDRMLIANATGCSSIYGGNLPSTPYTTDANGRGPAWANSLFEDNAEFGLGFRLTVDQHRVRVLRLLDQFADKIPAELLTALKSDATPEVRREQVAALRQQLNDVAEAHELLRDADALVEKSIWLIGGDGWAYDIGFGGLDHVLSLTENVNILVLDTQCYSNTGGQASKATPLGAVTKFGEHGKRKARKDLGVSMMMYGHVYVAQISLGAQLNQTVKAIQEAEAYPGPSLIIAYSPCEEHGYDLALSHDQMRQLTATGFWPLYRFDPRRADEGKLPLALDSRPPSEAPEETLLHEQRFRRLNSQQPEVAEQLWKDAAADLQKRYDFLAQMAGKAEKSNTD
UniProt P52037: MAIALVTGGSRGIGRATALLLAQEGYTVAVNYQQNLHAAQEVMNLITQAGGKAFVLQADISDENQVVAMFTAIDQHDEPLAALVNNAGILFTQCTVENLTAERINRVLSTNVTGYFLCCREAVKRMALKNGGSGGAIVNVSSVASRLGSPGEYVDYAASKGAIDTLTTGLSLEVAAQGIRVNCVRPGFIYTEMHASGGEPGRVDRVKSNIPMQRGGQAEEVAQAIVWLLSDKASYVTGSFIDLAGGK
UniProt P42628: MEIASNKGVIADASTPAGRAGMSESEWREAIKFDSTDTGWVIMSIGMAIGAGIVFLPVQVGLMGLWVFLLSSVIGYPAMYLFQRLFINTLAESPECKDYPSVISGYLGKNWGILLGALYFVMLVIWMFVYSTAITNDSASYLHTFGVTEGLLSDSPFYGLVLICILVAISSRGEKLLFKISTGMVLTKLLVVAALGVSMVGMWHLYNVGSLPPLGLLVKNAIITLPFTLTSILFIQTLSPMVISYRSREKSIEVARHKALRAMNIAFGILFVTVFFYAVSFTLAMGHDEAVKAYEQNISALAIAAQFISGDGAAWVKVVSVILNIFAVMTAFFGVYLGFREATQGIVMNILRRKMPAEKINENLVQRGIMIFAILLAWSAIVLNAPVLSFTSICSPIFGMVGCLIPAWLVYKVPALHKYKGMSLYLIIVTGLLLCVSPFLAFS
UniProt P46068: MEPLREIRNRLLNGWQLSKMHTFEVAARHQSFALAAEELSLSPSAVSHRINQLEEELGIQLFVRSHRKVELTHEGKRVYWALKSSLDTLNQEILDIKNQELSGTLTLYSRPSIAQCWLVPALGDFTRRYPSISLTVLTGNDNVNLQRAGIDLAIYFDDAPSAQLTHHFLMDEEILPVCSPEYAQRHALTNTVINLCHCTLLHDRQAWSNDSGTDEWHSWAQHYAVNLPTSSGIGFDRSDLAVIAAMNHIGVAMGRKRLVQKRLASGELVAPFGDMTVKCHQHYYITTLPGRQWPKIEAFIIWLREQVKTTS
UniProt P52007: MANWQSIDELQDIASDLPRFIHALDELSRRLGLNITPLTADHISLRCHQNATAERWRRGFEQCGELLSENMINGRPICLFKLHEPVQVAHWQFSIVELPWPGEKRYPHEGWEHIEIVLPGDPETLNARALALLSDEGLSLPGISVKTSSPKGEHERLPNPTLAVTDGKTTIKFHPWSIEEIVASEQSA
UniProt P45807: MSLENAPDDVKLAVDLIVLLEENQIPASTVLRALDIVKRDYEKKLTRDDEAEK
UniProt P43533: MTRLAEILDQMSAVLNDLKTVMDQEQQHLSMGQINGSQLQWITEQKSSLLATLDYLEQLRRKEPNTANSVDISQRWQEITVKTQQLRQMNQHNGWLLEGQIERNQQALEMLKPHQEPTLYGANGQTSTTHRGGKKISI
UniProt P46122: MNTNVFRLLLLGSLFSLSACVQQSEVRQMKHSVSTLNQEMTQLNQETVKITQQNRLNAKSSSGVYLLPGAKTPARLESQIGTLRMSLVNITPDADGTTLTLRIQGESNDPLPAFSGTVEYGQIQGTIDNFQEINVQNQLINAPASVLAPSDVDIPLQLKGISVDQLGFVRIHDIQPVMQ
UniProt P39831: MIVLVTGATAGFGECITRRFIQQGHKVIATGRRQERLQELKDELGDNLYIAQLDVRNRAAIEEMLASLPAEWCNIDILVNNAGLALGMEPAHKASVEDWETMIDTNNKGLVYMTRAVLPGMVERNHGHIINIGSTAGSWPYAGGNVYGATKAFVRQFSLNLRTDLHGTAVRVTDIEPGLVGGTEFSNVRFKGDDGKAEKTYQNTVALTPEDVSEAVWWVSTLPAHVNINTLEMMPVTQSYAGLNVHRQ
UniProt P43671: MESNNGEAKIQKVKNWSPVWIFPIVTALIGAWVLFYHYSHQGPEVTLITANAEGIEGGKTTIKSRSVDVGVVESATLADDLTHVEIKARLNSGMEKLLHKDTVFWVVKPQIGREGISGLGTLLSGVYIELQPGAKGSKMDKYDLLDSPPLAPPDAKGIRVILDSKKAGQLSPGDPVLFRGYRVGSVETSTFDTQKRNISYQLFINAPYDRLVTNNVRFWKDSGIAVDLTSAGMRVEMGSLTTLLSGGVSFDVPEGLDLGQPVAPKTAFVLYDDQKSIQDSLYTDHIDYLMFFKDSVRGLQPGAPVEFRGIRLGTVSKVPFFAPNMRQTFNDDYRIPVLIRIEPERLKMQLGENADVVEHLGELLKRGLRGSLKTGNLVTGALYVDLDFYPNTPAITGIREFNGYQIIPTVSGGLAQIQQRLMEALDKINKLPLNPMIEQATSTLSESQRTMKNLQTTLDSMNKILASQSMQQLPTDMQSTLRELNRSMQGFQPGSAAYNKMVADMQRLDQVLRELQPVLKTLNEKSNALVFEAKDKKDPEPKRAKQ
UniProt P39361: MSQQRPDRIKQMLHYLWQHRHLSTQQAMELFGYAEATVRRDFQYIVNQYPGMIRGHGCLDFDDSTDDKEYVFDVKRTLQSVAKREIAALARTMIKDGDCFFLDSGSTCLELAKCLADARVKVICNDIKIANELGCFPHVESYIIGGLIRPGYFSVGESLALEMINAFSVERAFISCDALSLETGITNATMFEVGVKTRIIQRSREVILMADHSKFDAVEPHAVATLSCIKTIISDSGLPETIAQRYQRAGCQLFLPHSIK

The results in this text go back to the supplement of paper PMC12819154, “High-throughput peptide-centric local stability assay extends protein–ligand identification to membrane proteins, tissues and bacteria” (Nature Structural & Molecular Biology, 2025).
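Also: lysate desalted by size exclusion to strip endogenous ATP, peptide intensities built from DIA-NN precursor signals, and peptides missing any value discarded before comparison.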

Compound in the test: Nc1ncnc2c1ncn2[C@@H]1O[C@H](COP(=O)(O)OP(=O)(O)OP(=O)(O)O)[C@@H](O)[C@H]1O [adenosine 5'-triphosphate]
Nature of the test: log2 fold change of tryptic peptide abundance, ligand vs vehicle (limited proteolysis) (log2 ratio); higher = more trypsin-susceptible (destabilized). The note with it: ligand concentration: 5 mM; sample: E. coli desalted lysate; replicate design: treated before aliquoting. The protocol: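 HT-PELSA: desalted E. coli K-12 BW25113 lysate (with 12 mM MgCl2) incubated with 5 mM ATP (pH 7) or water for 30 min at 25 C, then a 4 min trypsin pulse at 22 C. Peptides were quantified by DIA-MS (4 replicates). Value is the peptide log2 fold change (treated/control); negative = stabilized. Scale: negative = ligand-stabilized region.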
As to “UniProt P43674 (peptide sequence: AATLSDADAK, peptide start residue: 41)”, the log2 fold change came out at 0.166. As for “UniProt P64474 (peptide sequence: MSDGEKQEVLR, peptide start residue: 42)”, the figure is -0.124. The same measure for “UniProt P51981 (peptide sequence: LDNHLISER, peptide start residue: 152)”: 0.94; for “UniProt P42597 (peptide sequence: RYPGTHDYATDK, peptide start residue: 34)”: 0.347; for “UniProt P39336 (peptide sequence: NQPDNVIKEK, peptide start residue: 539)”: -0.404. The same measure for “UniProt P52074 (peptide sequence: NCETTCPSGVR, peptide start residue: 80)”: -0.734; for “UniProt P42907 (peptide sequence: LAAFYDSPTGFR, peptide start residue: 254)”: 0.521; for “UniProt P41039 (peptide sequence: LCIHCQQEKDLQKPAYTGYNR, peptide start residue: 59)”: -0.615. Take “UniProt P46852 (peptide sequence: RFDAVQGK, peptide start residue: 134)”: the log2 fold change was 0.503. The same measure for “UniProt P39389 (peptide sequence: VLLCSSFSK, peptide start residue: 305)”: -0.201; for “UniProt P39838 (peptide sequence: KGLQLLINNHLK, peptide start residue: 547)”: -0.274; for “UniProt P39382 (peptide sequence: NTLLVLSHESR, peptide start residue: 216)”: -0.101. As for “UniProt P52647 (peptide sequence: ALNPEHPVIR, peptide start residue: 203)”, the figure is 0.437; as for “UniProt P39376 (peptide sequence: HLLQQLESNLAELR, peptide start residue: 80)”, -0.507; as for “UniProt P45524 (peptide sequence: IREFDDLITAR, peptide start residue: 235)”, -0.25.

For “UniProt P52645 (peptide sequence: LPGNDCPQGKECEEKQ, peptide start residue: 864)”, the log2 fold change amounted to 0.98. The same measure for “UniProt P52037 (peptide sequence: SNIPMQR, peptide start residue: 208)”: 0.0576.

For “UniProt P42628 (peptide sequence: GVIADASTPAGR, peptide start residue: 8)”, the log2 fold change was -0.165. On to “UniProt P52044 (peptide sequence: LSAIDNEIHNSGRR, peptide start residue: 78)”, for which the log2 fold change was -0.337.

On to “UniProt P39337 (peptide sequence: LTLQDNPAIAR, peptide start residue: 14)”, for which the log2 fold change came out at 0.226. The same measure for “UniProt P46068 (peptide sequence: MHTFEVAAR, peptide start residue: 20)”: -0.169; for “UniProt P52007 (peptide sequence: FIHALDELSRR, peptide start residue: 20)”: 0.189; for “UniProt P45807 (peptide sequence: LTRDDEAEK, peptide start residue: 45)”: -0.0801. As for “UniProt P43533 (peptide sequence: KEPNTANSVDISQR, peptide start residue: 62)”, the figure is -0.425. Regarding “UniProt P52086 (peptide sequence: HGETQANIDGLYSGHAPTPLTAR, peptide start residue: 8)”, the log2 fold change was -0.168. As for “UniProt P46122 (peptide sequence: GISVDQLGFVR, peptide start residue: 160)”, the figure is -0.169. As for “UniProt P52045 (peptide sequence: VLGEAHTMNSDEFER, peptide start residue: 215)”, the figure is -0.0782; as for “UniProt P45753 (peptide sequence: TLLPWSR, peptide start residue: 58)”, 0.446; as for “UniProt P39358 (peptide sequence: NIFADESHDIYTVR, peptide start residue: 5)”, 0.185. As for “UniProt P39334 (peptide sequence: DDRPVGECLVEVLK, peptide start residue: 85)”, the figure is 0.176; as for “UniProt P39831 (peptide sequence: AVLPGMVER, peptide start residue: 116)”, -0.175. Take “UniProt P52062 (peptide sequence: CPYCDFNSHALK, peptide start residue: 20)”: the log2 fold change stood at 1.12.

As to “UniProt P54901 (peptide sequence: RWAESCLEFQVAQEIGRHWQR, peptide start residue: 177)”, the log2 fold change was 0.895. As for “UniProt P43671 (peptide sequence: SNALVFEAK, peptide start residue: 526)”, the figure is 0.075.

Take “UniProt P52643 (peptide sequence: NGVMIVNTSR, peptide start residue: 225)”: the log2 fold change is -0.304. As for “UniProt P55138 (peptide sequence: AQDLSPEDLLNKK, peptide start residue: 291)”, the figure is -0.326. As for “UniProt P39361 (peptide sequence: TLQSVAKR, peptide start residue: 77)”, the figure is -0.0784; as for “UniProt P45545 (peptide sequence: SAVIANAQSK, peptide start residue: 270)”, 0.0612; as for “UniProt P39384 (peptide sequence: QQWEEGQR, peptide start residue: 228)”, -0.187. As for “UniProt P46139 (peptide sequence: YINDTWGHATGDR, peptide start residue: 292)”, the figure is -0.39.
